PubChem BioAssay AID1259405 | NCATS, 2018

Aim: 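Knock-downs that lift recombinant protein yield in hamster ovary cells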 (primary screen)
Cells: Chinese hamster CHO-K1 ovary cells with stable secreted eGFP expression
Reagents: single siRNA against mouse genes, 0.8 pmol siRNA per well (2 µl of 400 nM stock)
Time to read-out: 3 days
Detection: 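Per-well intracellular GFP measured by laser scanning cytometry, plus viability from ATP luminescence, each relative to plate median of non-targeting control wells, in %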
Scale: GFP, % of control: higher = more GFP per well, higher productivity
Active means: 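Called active when intracellular GFP, relative to negative control, is at or above 120%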
This is a random part of about 50,000 reagents. Of all reagents, about 4,000 (8%) are marked active. 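Mouse siRNA library applied to hamster cells; one well for each siRNA.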 Entries without a mark were called inactive. The numbers tell different reagents against one gene apart. Further read-outs or replicates are left out here.

GFP, % of control, by gene and reagent
Fscn2 (GeneID 238021): #1 38.8; #2 55.3; #3 75.1
Or4c58 (GeneID 18347): #1 90.8; #2 73; #3 84.9
Pcdhb21 (GeneID 93892): #1 81.3; #2 0.0638
Cr2 (GeneID 12902): #1 38.4; #2 126 (active); #3 38.9
Isl2 (GeneID 104360): #1 90.3; #2 70.6; #3 82.8
Dnaaf1 (GeneID 68270): #1 91.1; #2 45.8; #3 81.7
Nfs1 (GeneID 18041): #1 96; #2 57.7; #3 49.1
Arhgdia (GeneID 192662): #1 131 (active); #2 114; #3 72
Tyk2 (GeneID 54721): #1 58.3; #2 77.1; #3 47.5
Tjp1 (GeneID 21872): #1 51.8; #2 110; #3 100
Bmp7 (GeneID 12162): #1 95.9; #2 79.3
Lrsam1 (GeneID 227738): #1 48.7; #2 58.4; #3 82.5
Sar1a (GeneID 20224): #1 77.3; #2 28.3; #3 148 (active)

Looked up above:
Under “GFP, % of control”, Nfs1 (GeneID 18041) #2 has 57.7
Under “GFP, % of control”, Bmp7 (GeneID 12162) #1 shows 95.9
Fscn2 (GeneID 238021) #1, GFP, % of control = 38.8
Arhgdia (GeneID 192662) #1, GFP, % of control = 131 (active)
For “GFP, % of control”, Sar1a (GeneID 20224) #1 has 77.3
Value of Lrsam1 (GeneID 227738) #2 under “GFP, % of control”: 58.4

The listing continues.
GFP, % of control, by gene and reagent
Barx2 (GeneID 12023): #1 166 (active); #2 34.5; #3 71.4
Caml (GeneID 12328): #1 65.9; #2 36.5; #3 107
Tpcn1 (GeneID 252972): #1 69.5; #2 46.6; #3 80.8
C1qc (GeneID 12262): #1 74; #2 106; #3 66.4
Sccpdh (GeneID 109232): #1 80.8; #2 23.9; #3 101
Elovl7 (GeneID 74559): #1 76.9; #2 65.9; #3 49
Pabpn1l (GeneID 382035): #1 196 (active); #2 41.9; #3 21.6
Fbxo30 (GeneID 71865): #1 41.4; #2 95.3; #3 102
Psg19 (GeneID 26439): #1 79; #2 65.5; #3 92
Alyreffm1 (GeneID 70988): #1 79.1; #2 71.9; #3 83.3
Cpa1 (GeneID 109697): #1 176 (active); #2 62.6; #3 70.2
Ghrh (GeneID 14601): #1 69.3; #2 25.5; #3 103
Abca9 (GeneID 217262): #1 61.6; #2 76.8; #3 114
Snapc2 (GeneID 102209): #1 86.9; #2 84.5; #3 51.6
Pigt (GeneID 78928): #1 104; #2 74.2; #3 96.1
Plagl1 (GeneID 22634): #1 84.1; #2 84; #3 65
Tbc1d24 (GeneID 224617): #1 122 (active); #2 90.2; #3 46
Rnf122 (GeneID 68867): #1 35; #2 145 (active); #3 82.6
Pou2f1 (GeneID 18986): #1 91.2; #2 77.3; #3 76.2
Cacng3 (GeneID 54376): #1 73.2; #2 96.2; #3 67.9
Wdr35 (GeneID 74682): #1 30.5; #2 52.7; #3 65.6
Csf2 (GeneID 12981): #1 63.6; #2 116; #3 69.5
Lhfpl2 (GeneID 218454): #1 75.4; #2 62.4; #3 107
Pard6g (GeneID 93737): #1 70.3; #2 99.4; #3 102
